Laboratory results taken from the supplement of paper PMC10849652.
The other results are listed elsewhere or left out.

The chains behind the UniProt entries cited, without tags or fusion partners. Where a name states a change or a piece, a line headed by the entry shows the natural chain unless it says otherwise.
UniProt Q9UGC7: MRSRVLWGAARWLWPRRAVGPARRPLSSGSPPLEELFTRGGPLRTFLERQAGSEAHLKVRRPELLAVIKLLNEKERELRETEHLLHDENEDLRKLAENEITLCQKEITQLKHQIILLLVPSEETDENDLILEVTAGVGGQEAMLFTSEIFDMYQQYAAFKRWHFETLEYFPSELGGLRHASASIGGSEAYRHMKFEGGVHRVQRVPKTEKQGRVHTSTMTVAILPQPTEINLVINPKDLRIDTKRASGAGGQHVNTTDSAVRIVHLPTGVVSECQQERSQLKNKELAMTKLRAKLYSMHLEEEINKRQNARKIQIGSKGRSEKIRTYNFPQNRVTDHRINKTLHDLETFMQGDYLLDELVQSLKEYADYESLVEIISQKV
UniProt Q96QG7: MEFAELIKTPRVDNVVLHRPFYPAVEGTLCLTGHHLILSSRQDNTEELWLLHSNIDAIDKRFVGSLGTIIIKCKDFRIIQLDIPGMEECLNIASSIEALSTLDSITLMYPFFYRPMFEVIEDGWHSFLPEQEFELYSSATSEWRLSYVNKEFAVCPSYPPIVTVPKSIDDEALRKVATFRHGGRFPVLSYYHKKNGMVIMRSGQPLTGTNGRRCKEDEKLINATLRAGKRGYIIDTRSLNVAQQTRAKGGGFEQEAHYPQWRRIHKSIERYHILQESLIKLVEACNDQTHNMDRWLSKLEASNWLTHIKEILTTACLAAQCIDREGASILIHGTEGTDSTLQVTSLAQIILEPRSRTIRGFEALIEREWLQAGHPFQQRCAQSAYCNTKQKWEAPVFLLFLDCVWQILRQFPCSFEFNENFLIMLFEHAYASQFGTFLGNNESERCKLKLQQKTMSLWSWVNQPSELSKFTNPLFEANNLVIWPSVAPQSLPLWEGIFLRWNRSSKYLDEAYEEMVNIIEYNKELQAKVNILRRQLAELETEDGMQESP
UniProt Q9P0P8: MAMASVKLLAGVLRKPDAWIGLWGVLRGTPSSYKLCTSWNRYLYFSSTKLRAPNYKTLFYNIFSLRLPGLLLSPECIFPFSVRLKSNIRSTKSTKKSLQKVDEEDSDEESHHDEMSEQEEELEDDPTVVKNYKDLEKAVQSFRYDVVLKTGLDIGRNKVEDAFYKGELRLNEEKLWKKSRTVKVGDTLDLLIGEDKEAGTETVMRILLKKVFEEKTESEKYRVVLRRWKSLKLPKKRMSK
UniProt P42285: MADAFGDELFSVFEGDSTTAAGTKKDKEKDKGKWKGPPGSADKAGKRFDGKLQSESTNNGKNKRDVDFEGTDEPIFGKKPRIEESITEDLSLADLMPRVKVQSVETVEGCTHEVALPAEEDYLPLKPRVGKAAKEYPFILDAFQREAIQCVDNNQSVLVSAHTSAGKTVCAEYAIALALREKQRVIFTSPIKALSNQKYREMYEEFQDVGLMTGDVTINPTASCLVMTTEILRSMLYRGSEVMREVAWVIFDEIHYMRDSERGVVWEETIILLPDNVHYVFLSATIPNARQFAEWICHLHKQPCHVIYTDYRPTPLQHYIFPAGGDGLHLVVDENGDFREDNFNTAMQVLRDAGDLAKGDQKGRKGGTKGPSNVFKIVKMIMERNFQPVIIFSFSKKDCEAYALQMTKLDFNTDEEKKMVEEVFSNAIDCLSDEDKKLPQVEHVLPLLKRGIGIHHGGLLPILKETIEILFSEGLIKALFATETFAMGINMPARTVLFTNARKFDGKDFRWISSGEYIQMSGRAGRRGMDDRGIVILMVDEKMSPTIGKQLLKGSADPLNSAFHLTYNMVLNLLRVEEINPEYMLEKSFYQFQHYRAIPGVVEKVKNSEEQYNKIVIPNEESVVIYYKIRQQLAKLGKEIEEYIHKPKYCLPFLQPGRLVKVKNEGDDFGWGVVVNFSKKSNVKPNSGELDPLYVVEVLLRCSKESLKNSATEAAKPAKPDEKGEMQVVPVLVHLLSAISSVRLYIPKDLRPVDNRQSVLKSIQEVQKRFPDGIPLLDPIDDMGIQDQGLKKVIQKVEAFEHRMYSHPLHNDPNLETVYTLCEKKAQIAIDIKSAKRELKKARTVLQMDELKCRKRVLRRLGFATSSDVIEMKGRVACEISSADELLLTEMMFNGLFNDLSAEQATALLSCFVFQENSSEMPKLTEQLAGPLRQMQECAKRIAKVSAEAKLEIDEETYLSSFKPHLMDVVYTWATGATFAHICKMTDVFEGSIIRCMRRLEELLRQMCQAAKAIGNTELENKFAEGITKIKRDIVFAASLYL
UniProt Q9Y217: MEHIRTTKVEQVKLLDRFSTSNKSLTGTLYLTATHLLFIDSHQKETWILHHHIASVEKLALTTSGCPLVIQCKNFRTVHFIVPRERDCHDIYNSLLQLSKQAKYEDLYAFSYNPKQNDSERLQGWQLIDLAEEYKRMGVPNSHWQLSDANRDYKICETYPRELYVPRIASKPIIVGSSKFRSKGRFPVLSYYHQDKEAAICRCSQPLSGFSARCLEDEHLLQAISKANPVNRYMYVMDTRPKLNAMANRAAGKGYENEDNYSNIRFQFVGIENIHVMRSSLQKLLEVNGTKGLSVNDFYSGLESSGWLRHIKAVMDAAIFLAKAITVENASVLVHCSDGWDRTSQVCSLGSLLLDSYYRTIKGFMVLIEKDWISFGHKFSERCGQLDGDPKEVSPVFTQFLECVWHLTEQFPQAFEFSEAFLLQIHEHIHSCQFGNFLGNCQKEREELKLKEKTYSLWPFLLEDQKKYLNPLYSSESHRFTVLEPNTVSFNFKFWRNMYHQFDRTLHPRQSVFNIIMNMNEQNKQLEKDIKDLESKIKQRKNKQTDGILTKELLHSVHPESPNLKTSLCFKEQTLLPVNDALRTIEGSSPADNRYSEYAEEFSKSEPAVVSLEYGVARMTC
UniProt Q9NZJ7, whole entry, looked up: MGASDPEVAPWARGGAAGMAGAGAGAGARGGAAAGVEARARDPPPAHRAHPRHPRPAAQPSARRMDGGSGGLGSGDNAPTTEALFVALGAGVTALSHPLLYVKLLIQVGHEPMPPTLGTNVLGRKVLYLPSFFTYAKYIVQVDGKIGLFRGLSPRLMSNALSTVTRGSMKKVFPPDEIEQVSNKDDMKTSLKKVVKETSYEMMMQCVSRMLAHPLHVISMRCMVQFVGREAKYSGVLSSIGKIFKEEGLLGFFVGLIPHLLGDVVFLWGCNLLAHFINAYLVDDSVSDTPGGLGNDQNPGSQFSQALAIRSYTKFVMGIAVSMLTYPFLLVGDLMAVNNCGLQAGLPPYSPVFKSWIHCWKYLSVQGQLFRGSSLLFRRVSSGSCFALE
UniProt Q765P7: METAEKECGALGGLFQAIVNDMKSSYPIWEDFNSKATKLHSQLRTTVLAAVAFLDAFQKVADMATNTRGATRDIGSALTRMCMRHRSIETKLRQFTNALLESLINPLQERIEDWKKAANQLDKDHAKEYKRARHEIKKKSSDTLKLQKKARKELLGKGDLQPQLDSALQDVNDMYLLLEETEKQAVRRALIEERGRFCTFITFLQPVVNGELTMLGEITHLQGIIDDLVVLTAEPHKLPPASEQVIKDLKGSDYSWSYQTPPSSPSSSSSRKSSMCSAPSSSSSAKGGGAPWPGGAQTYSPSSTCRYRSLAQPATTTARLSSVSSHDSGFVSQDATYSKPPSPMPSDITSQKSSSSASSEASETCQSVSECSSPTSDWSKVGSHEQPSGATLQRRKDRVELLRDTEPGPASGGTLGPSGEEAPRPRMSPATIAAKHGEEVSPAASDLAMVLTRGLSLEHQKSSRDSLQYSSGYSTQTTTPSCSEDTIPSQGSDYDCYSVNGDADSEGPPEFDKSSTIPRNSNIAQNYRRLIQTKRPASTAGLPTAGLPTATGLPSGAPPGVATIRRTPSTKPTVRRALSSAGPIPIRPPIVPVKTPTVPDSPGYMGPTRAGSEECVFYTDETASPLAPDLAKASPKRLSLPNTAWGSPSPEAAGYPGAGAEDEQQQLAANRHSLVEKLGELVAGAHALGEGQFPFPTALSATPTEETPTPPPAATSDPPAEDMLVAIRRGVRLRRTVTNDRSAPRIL
UniProt Q9UM54, whole entry, looked up: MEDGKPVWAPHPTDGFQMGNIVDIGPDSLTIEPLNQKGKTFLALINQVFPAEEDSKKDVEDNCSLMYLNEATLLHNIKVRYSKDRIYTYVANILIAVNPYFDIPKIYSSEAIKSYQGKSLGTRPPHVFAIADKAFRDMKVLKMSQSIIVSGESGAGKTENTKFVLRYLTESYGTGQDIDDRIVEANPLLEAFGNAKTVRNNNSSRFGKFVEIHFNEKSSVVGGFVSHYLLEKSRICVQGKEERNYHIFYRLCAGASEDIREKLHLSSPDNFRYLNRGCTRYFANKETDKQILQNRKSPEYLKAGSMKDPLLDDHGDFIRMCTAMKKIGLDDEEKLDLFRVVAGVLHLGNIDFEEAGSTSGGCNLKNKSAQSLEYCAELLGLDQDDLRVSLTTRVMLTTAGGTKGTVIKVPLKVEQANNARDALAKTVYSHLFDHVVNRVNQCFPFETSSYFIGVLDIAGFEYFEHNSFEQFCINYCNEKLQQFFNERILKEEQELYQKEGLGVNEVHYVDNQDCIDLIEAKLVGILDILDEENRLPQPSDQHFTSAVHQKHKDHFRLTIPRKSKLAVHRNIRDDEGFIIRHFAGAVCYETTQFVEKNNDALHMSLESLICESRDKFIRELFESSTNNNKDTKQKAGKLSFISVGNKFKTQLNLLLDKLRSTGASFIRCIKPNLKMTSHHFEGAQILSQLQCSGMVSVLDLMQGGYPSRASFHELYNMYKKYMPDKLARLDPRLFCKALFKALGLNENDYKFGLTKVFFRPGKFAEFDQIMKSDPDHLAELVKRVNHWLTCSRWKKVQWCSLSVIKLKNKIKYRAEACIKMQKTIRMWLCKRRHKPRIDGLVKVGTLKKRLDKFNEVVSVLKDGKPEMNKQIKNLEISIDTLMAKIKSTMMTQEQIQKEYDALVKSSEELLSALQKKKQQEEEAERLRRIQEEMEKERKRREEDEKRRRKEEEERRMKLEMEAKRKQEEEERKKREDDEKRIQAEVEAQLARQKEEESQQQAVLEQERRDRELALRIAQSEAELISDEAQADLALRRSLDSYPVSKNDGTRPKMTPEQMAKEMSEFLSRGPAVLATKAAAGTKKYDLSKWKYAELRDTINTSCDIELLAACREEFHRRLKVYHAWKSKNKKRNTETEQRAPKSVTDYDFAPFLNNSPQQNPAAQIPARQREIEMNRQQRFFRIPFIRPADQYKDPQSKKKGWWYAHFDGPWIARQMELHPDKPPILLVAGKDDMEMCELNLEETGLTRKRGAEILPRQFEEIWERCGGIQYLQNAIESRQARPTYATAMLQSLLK
UniProt O94776: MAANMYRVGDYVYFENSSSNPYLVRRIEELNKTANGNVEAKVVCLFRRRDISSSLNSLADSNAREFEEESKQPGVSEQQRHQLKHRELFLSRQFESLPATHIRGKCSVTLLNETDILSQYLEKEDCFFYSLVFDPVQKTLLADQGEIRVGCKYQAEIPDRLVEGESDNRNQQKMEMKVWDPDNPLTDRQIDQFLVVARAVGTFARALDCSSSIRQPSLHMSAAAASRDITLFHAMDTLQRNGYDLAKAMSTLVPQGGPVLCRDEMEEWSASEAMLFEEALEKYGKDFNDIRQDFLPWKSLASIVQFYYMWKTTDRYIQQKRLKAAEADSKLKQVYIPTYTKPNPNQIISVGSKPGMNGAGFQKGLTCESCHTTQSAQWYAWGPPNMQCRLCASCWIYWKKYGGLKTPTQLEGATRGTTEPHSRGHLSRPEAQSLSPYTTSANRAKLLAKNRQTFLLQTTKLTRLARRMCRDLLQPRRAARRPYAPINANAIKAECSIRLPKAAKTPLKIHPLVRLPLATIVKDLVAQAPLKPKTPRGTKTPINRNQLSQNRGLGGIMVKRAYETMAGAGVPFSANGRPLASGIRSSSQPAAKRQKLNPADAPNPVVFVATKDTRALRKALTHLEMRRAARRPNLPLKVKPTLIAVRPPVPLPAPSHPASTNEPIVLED
UniProt Q93083: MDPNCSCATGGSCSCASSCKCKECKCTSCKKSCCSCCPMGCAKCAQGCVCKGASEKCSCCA
UniProt Q9UDX5: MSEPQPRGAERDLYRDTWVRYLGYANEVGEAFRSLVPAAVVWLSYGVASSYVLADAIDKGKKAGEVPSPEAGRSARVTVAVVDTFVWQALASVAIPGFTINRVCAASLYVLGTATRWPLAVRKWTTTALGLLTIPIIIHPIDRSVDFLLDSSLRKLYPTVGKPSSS
UniProt Q9HD23: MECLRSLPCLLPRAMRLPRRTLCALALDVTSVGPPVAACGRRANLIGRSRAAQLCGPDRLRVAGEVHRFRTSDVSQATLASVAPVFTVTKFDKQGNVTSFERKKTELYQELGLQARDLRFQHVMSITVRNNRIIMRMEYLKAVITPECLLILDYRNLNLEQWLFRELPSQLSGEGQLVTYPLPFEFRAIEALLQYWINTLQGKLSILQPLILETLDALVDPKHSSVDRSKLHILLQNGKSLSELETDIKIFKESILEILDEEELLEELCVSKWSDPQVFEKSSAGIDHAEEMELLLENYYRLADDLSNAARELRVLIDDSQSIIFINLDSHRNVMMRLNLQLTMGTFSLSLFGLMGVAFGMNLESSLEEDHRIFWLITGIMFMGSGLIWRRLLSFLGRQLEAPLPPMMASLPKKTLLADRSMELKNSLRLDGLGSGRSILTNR

These targets were tested with c1cn2cc(-c3ccc4cn[nH]c4c3)nc(Nc3ccc(N4CCOCC4)cc3)c2n1 [entospletinib] (assay: log2 fold change, soluble protein after heating vs DMSO (PISA); higher = thermal stabilisation; K562 cells, 10 uM, 30 min; active = over 0.2 and 3.5 SD of the protein, either way, in both replicates (recomputed)).
Outline: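 For each measurement, 10 μM compound was applied for 30 min to K562 cells at 2×10^6 cells/mL. Aliquots were heated for 3 min across 48°C-58°C, pooled, and extracted in PBS with 0.5% NP-40 at 4°C; the supernatant after 21,000xg for 90 min was soluble protein. This was quantified by TMTpro 16plex LC-MS/MS with channel sums equalised, and thermal stability was reported relative to control samples from duplicates, on a log2 fold-change scale.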

log2 fold change, inactive:
MYO1D (UniProt O94832) -0.024
MVK (UniProt Q03426) -0.015
MTRF1L (UniProt Q9UGC7) 0.145
MRPS34 (UniProt P82930) 0.107
MTMR1 (UniProt Q13613) 0.128
MTMR9 (UniProt Q96QG7) 0.056
MRPS7 (UniProt Q9Y2R9) 0.003
MTRES1 (UniProt Q9P0P8) 0.03
MTREX (UniProt P42285) -0.031
MVB12A (UniProt Q96EY5) 0
MVD (UniProt P53602) -0.01
MTMR6 (UniProt Q9Y217) 0.113
MTCH1 (UniProt Q9NZJ7) -0.008
MTSS2 (UniProt Q765P7) 0.026
MRPS30 (UniProt Q9NP92) -0.085
MTM1 (UniProt Q13496) 0.042
MYH14 isoform 2 (UniProt Q7Z406) -0.044
MTO1 isoform 6 (UniProt Q9Y2Z2) 0.128
MYL6B (UniProt P14649) -0.004
MSN (UniProt P26038) 0.009
MYO6 isoform 6 (UniProt Q9UM54) -0.016
MTA2 (UniProt O94776) 0.039
MRPS11 (UniProt P82912) 0.02
MT1L (UniProt Q93083) 0.074
MUCL1 (UniProt Q96DR8) 0.094
MRPS28 (UniProt Q9Y2Q9) 0.041
MVP (UniProt Q14764) 0.913
MTFP1 (UniProt Q9UDX5) 0.007
MRS2 (UniProt Q9HD23) -0.018
MYO18A (UniProt Q92614) -0.108

Eight neighbouring records already listed, quoted:
log2 fold change, inactive:
MTA2 (UniProt O94776) 0.039
MRPS11 (UniProt P82912) 0.02
MT1L (UniProt Q93083) 0.074
MUCL1 (UniProt Q96DR8) 0.094
MRPS28 (UniProt Q9Y2Q9) 0.041
MVP (UniProt Q14764) 0.913
MTFP1 (UniProt Q9UDX5) 0.007
MRS2 (UniProt Q9HD23) -0.018
